Experimental data taken from PubChem BioAssay AID1259415 (National Center for Advancing Translational Sciences (NCATS), 2018).
Hit rate of the full screen: of about 410,000 compounds, about 18,000 (4.4%) were called active. This list was built around the results that the source calls inconclusive (neither active nor inactive); the mix of calls is not that of the screen. Rule as the data show it: active = activity change below about -60%; inconclusive = no clear call, values can overlap the other calls; inactive = above about -39%.

assay: qHTS Assay for inhibitors of the human cytomegalovirus (HCMV); settings: HFF cells, HCMV-luciferase reporter, 72 h; at 57.5 µM; active compounds read low
How it was run: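 Inhibition of viral replication was scored as loss of reporter luminescence in HFFs infected with HCMV-luciferase (MOI 1 PFU/cell) for 72 h; compounds tested at 2 doses, normalized to buffer and Salinomycin controls.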
% is scaled to controls: 0 for no effect and ±100 for the full control effect.

SMILES | activity change, negative = inhibition
CC(NC(=O)C(=O)NN=C1CCCC1)c1ccccc1 (centres undefined) | inconclusive: -53.3%
COc1ccc(C(=O)Nc2ccccc2-c2ccccc2)cc1Cl | inconclusive: -43.5%
COc1ccc(C(=O)NNC(=O)CN(C)S(=O)(=O)c2ccc(Cl)cc2)c(OC)c1OC | inconclusive: -43.8%
Oc1ccc(CN2CCc3ccccc3C2)c2cccnc12 | active: -99.3%
COCCOC(=O)C(CC(=O)O)NCc1ccco1 (centres undefined) | inactive: 17%
CN(C)c1ccc(/C=N/NC(=O)c2ccc3c(c2)OCCO3)cc1 | inactive: 27.1%
CCc1ccc(N2CCN(S(=O)(=O)CC34CCC(CC3=O)C4(C)C)CC2)cc1 (centres undefined) | inconclusive: -43.1%
COc1cccc(CNC(=O)C(C)n2ccc3cc(S(=O)(=O)N4CCCCCC4)ccc32)c1 (centres undefined) | inconclusive: -45.7%
O=C(c1ccc([N+](=O)[O-])s1)N1CCCc2ccccc21 | inconclusive: -50.2%
COc1cc(C2C(C(=O)c3ccc(C)o3)=C(O)C(=O)N2c2cc(C)on2)ccc1OCc1ccccc1 (centres undefined) | inconclusive: -44.5%
COc1ccccc1N1CCN(Cc2cc(=O)oc3cc(C)cc(C)c23)CC1 | inactive: -12.7%
Cc1ccc(-n2c(SCC(=O)N3CC(=O)Nc4ccccc43)nc3ccccc3c2=O)cc1C | active: -80%
COc1ccc(-c2nnc(NC(=O)c3ccc(S(=O)(=O)N4COCC4(C)C)cc3)o2)cc1 | active: -62.5%
CCn1c(/C=C/c2ccccc2[N+](=O)[O-])nc2ccccc2c1=O | inconclusive: -47.8%
Cc1cc(NC(=O)c2ccc(S(=O)(=O)N3CCc4ccccc43)cc2)no1 | inconclusive: -45.6%
COc1cccc(C(=O)NNC2OC(CO)C(O)C2O)c1 (centres undefined) | inactive: -15.3%
Cc1cc(-c2nnc(SCC(=O)c3ccc(Cl)cc3)o2)no1 | inconclusive: -46.8%
CN(Cc1cccs1)CC(O)COCc1ccco1 (centres undefined) | inactive: 54%
O=c1[nH]c2ccccc2cc1CN(c1ccccc1)S(=O)(=O)c1ccccc1 | active: -63.8%
O=C(NNc1c2ccccc2nc2ccccc12)C(O)c1ccccc1 (centres undefined) | inactive: 0%
O=[N+]([O-])c1c(Nc2ccccc2O)cc(N2CCOCC2)c2nonc12 | inconclusive: -57.5%
COc1ccc(NC(=O)C2(C)Cc3c(-c4ccccc4)ccnc3O2)cc1OC (centres undefined) | inconclusive: -58.3%
CCOc1ccccc1N1CCN(CC(=O)Nc2ccnn2C2CCCC2)CC1 | inactive: -13.5%
COc1ccc(-n2nc([N+](=O)[O-])c(=NC3CCN(Cc4ccccc4)CC3)n2O)cc1 | active: -62.6%

Gathered by group: the entries above containing an aryl thioether with sulfur outside any ring
SMILES | activity change, negative = inhibition
Cc1ccc(-n2c(SCC(=O)N3CC(=O)Nc4ccccc43)nc3ccccc3c2=O)cc1C | active: -80%
Cc1cc(-c2nnc(SCC(=O)c3ccc(Cl)cc3)o2)no1 | inconclusive: -46.8%
